Measured values from PMC11178795, “Hydrogen peroxide is required for light-induced stomatal opening across different plant species” (Nature Communications, 2024).
No constants are given. Whether binding was seen depends on the method and setting. For part of these data: Binding seen in cells or lysates may run through a third protein. Some entries that bind do so weakly or less than the wild type. Sequences can lack the tags named with a protein. One block for each binder: values may come before it.

Protein sequences, listed by entry. Tags and fused reporters are not part of them.
UniProt Q8S307: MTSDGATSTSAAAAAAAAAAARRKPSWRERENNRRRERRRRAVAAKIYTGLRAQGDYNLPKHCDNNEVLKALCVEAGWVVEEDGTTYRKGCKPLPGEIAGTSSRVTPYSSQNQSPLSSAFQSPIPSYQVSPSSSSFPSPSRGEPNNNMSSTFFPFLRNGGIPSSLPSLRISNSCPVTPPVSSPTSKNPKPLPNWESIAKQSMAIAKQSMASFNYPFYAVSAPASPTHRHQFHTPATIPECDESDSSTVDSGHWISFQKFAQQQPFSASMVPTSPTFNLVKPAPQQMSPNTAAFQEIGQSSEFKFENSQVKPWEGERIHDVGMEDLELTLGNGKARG

Columns and labels:
[1] = biological target: T1, BD-KIN10 (Arabidopsis thaliana) (UniProt Q38997); assay: two-hybrid; yeast; BD-KIN10 as bait; BD-KIN10 with empty-AD vector as negative control
T1 sequence: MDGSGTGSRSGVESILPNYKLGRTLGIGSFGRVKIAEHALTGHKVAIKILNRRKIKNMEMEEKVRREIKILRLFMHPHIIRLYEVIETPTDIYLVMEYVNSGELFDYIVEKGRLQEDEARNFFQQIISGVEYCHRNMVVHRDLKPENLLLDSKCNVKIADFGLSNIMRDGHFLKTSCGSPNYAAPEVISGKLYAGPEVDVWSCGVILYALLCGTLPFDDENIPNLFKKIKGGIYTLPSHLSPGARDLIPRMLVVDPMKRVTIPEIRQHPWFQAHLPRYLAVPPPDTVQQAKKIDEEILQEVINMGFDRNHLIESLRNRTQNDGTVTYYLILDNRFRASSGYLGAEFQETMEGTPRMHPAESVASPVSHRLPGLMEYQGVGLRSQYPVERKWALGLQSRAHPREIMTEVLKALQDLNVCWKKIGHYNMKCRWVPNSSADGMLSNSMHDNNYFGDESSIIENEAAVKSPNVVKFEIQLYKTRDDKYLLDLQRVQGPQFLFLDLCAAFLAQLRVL

[2] = biological target: BZR1-nYFP (Arabidopsis thaliana) (UniProt Q8S307); assay: split reporter; ratiometric BiFC (2in1 vector, RFP as reference) in tobacco leaf epidermal cells; at least 48 h at 22 °C after injection; mock or 1 mM H2O2 for 3 h; with or without co-expressed p35S::KIN10-CFP
[3] = biological target: T2, KIN10-nYFP (Arabidopsis thaliana) (UniProt Q38997); assay: as above
T2 sequence: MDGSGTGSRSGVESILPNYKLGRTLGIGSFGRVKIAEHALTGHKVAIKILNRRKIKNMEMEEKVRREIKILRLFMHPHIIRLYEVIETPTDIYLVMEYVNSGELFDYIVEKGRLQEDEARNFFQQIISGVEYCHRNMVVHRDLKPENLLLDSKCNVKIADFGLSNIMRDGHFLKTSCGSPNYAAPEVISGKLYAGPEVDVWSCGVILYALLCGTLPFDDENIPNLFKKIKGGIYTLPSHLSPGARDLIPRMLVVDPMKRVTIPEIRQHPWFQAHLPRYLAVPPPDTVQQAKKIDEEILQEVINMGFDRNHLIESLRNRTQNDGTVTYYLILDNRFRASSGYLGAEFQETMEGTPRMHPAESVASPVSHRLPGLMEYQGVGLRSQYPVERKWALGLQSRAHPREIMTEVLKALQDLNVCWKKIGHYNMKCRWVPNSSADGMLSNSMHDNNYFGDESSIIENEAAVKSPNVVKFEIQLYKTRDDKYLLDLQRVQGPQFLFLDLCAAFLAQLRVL

[4] = biological target: T3, bZIP30-cYFP (Arabidopsis thaliana) (UniProt Q9SIG8); assay: as above
T3 sequence: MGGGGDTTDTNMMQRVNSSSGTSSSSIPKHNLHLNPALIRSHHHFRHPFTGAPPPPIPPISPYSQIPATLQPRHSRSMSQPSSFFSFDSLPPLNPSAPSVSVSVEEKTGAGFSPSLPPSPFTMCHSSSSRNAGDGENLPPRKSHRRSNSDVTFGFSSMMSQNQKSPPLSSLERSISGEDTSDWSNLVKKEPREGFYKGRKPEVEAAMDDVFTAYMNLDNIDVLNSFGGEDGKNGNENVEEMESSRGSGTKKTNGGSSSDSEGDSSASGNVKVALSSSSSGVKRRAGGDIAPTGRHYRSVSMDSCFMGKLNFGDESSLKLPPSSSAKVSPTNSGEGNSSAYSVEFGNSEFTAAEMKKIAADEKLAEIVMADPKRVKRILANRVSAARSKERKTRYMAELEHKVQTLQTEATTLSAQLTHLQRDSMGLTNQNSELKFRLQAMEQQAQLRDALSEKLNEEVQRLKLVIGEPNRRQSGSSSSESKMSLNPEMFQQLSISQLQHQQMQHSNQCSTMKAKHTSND

[5] = biological target: T4, bZIP30-YFP (Arabidopsis thaliana) (UniProt Q9SIG8); assay: co-IP; protein extract of 10-day-old pbZIP30::bZIP30-YFP and Col-0 seedlings; bZIP30-YFP precipitated with GFP-Trap agarose beads, 4 °C, 1 hour; blots with anti-GFP and anti-KIN10
T4 sequence: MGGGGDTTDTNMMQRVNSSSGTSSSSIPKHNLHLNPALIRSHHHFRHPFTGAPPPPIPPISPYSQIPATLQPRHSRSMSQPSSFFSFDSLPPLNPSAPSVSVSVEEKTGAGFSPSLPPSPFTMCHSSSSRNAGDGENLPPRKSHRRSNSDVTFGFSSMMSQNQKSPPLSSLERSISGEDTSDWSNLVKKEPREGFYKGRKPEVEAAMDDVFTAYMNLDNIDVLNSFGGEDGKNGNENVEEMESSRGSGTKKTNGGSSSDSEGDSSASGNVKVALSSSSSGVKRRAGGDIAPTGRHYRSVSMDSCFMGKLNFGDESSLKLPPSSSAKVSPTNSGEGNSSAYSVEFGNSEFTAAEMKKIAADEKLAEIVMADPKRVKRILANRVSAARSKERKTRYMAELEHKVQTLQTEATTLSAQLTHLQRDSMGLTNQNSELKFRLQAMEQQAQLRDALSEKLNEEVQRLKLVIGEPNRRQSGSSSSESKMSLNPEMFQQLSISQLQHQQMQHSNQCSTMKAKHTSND

binding [1]: binds
B1: bZIP30 fused to the GAL4 activation domain (protein, UniProt Q9SIG8 1-519)
chain: MGGGGDTTDTNMMQRVNSSSGTSSSSIPKHNLHLNPALIRSHHHFRHPFTGAPPPPIPPISPYSQIPATLQPRHSRSMSQPSSFFSFDSLPPLNPSAPSVSVSVEEKTGAGFSPSLPPSPFTMCHSSSSRNAGDGENLPPRKSHRRSNSDVTFGFSSMMSQNQKSPPLSSLERSISGEDTSDWSNLVKKEPREGFYKGRKPEVEAAMDDVFTAYMNLDNIDVLNSFGGEDGKNGNENVEEMESSRGSGTKKTNGGSSSDSEGDSSASGNVKVALSSSSSGVKRRAGGDIAPTGRHYRSVSMDSCFMGKLNFGDESSLKLPPSSSAKVSPTNSGEGNSSAYSVEFGNSEFTAAEMKKIAADEKLAEIVMADPKRVKRILANRVSAARSKERKTRYMAELEHKVQTLQTEATTLSAQLTHLQRDSMGLTNQNSELKFRLQAMEQQAQLRDALSEKLNEEVQRLKLVIGEPNRRQSGSSSSESKMSLNPEMFQQLSISQLQHQQMQHSNQCSTMKAKHTSND

binding [2]: binds
binding [3]: binds
binding [4]: binds
B2: bZIP30-cYFP (protein, UniProt Q9SIG8 1-519)
chain: MGGGGDTTDTNMMQRVNSSSGTSSSSIPKHNLHLNPALIRSHHHFRHPFTGAPPPPIPPISPYSQIPATLQPRHSRSMSQPSSFFSFDSLPPLNPSAPSVSVSVEEKTGAGFSPSLPPSPFTMCHSSSSRNAGDGENLPPRKSHRRSNSDVTFGFSSMMSQNQKSPPLSSLERSISGEDTSDWSNLVKKEPREGFYKGRKPEVEAAMDDVFTAYMNLDNIDVLNSFGGEDGKNGNENVEEMESSRGSGTKKTNGGSSSDSEGDSSASGNVKVALSSSSSGVKRRAGGDIAPTGRHYRSVSMDSCFMGKLNFGDESSLKLPPSSSAKVSPTNSGEGNSSAYSVEFGNSEFTAAEMKKIAADEKLAEIVMADPKRVKRILANRVSAARSKERKTRYMAELEHKVQTLQTEATTLSAQLTHLQRDSMGLTNQNSELKFRLQAMEQQAQLRDALSEKLNEEVQRLKLVIGEPNRRQSGSSSSESKMSLNPEMFQQLSISQLQHQQMQHSNQCSTMKAKHTSND

binding [4]: binds
B3: bZIP30^S18/T22A-cYFP (protein, UniProt Q9SIG8 1-519)
chain: MGGGGDTTDTNMMQRVNASSGASSSSIPKHNLHLNPALIRSHHHFRHPFTGAPPPPIPPISPYSQIPATLQPRHSRSMSQPSSFFSFDSLPPLNPSAPSVSVSVEEKTGAGFSPSLPPSPFTMCHSSSSRNAGDGENLPPRKSHRRSNSDVTFGFSSMMSQNQKSPPLSSLERSISGEDTSDWSNLVKKEPREGFYKGRKPEVEAAMDDVFTAYMNLDNIDVLNSFGGEDGKNGNENVEEMESSRGSGTKKTNGGSSSDSEGDSSASGNVKVALSSSSSGVKRRAGGDIAPTGRHYRSVSMDSCFMGKLNFGDESSLKLPPSSSAKVSPTNSGEGNSSAYSVEFGNSEFTAAEMKKIAADEKLAEIVMADPKRVKRILANRVSAARSKERKTRYMAELEHKVQTLQTEATTLSAQLTHLQRDSMGLTNQNSELKFRLQAMEQQAQLRDALSEKLNEEVQRLKLVIGEPNRRQSGSSSSESKMSLNPEMFQQLSISQLQHQQMQHSNQCSTMKAKHTSND

binding [5]: binds
B4: MBP-KIN10 (enzyme, Arabidopsis thaliana, UniProt Q38997 1-512, looked up)
chain: MDGSGTGSRSGVESILPNYKLGRTLGIGSFGRVKIAEHALTGHKVAIKILNRRKIKNMEMEEKVRREIKILRLFMHPHIIRLYEVIETPTDIYLVMEYVNSGELFDYIVEKGRLQEDEARNFFQQIISGVEYCHRNMVVHRDLKPENLLLDSKCNVKIADFGLSNIMRDGHFLKTSCGSPNYAAPEVISGKLYAGPEVDVWSCGVILYALLCGTLPFDDENIPNLFKKIKGGIYTLPSHLSPGARDLIPRMLVVDPMKRVTIPEIRQHPWFQAHLPRYLAVPPPDTVQQAKKIDEEILQEVINMGFDRNHLIESLRNRTQNDGTVTYYLILDNRFRASSGYLGAEFQETMEGTPRMHPAESVASPVSHRLPGLMEYQGVGLRSQYPVERKWALGLQSRAHPREIMTEVLKALQDLNVCWKKIGHYNMKCRWVPNSSADGMLSNSMHDNNYFGDESSIIENEAAVKSPNVVKFEIQLYKTRDDKYLLDLQRVQGPQFLFLDLCAAFLAQLRVL
notes: KIN10, catalytic subunit of SnRK1, Arabidopsis, AT3G01090; full-length coding region without stop codon; destination vector pMAL2CGW (N-MBP); source: Escherichia coli, purified (amylose resin); not shown: MBP, N-terminal, kept
